# Laboratory results as given in the supplement of paper PMC12823440, “Inhibitors supercharge kinase turnover through native proteolytic circuits” (Nature, 2025).
# Sequences of proteins named here, by UniProt entry; tags and fusion partners are left off. A change or cut given only in a name is not applied to a line headed by its entry.
# UniProt P21860, whole entry: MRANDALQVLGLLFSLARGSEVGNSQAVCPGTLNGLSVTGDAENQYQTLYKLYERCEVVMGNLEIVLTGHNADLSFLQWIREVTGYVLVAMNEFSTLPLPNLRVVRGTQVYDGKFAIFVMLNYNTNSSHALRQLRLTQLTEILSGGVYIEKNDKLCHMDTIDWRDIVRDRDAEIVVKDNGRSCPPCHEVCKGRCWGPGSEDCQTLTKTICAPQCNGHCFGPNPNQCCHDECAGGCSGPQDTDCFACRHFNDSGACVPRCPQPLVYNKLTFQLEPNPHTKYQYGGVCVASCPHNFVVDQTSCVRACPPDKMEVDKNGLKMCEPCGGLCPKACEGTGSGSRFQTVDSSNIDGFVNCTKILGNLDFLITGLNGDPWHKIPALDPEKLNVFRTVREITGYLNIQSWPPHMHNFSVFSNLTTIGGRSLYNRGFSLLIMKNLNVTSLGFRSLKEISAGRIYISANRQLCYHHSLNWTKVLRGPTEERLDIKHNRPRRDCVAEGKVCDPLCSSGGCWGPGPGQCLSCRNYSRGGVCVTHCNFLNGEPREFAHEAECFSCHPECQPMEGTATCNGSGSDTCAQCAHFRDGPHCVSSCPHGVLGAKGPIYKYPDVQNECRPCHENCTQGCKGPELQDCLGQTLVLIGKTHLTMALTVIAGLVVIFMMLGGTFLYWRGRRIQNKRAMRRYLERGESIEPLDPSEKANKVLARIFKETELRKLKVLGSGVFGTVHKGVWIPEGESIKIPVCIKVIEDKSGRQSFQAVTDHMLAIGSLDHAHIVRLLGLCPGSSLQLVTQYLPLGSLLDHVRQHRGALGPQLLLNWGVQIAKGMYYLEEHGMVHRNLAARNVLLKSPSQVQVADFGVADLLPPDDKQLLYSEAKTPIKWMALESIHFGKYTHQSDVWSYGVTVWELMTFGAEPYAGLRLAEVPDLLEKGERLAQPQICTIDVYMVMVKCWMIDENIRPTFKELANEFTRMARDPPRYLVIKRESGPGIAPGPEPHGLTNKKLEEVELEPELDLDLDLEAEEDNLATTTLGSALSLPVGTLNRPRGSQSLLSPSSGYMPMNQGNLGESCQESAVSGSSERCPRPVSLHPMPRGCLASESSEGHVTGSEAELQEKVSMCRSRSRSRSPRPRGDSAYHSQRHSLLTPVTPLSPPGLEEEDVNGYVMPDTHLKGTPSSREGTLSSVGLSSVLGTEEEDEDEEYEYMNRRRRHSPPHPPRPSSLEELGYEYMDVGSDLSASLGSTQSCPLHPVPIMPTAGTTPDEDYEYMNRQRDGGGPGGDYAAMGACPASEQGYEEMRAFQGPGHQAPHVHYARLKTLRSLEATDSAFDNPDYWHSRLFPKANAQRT
# UniProt Q15303, whole entry R711C: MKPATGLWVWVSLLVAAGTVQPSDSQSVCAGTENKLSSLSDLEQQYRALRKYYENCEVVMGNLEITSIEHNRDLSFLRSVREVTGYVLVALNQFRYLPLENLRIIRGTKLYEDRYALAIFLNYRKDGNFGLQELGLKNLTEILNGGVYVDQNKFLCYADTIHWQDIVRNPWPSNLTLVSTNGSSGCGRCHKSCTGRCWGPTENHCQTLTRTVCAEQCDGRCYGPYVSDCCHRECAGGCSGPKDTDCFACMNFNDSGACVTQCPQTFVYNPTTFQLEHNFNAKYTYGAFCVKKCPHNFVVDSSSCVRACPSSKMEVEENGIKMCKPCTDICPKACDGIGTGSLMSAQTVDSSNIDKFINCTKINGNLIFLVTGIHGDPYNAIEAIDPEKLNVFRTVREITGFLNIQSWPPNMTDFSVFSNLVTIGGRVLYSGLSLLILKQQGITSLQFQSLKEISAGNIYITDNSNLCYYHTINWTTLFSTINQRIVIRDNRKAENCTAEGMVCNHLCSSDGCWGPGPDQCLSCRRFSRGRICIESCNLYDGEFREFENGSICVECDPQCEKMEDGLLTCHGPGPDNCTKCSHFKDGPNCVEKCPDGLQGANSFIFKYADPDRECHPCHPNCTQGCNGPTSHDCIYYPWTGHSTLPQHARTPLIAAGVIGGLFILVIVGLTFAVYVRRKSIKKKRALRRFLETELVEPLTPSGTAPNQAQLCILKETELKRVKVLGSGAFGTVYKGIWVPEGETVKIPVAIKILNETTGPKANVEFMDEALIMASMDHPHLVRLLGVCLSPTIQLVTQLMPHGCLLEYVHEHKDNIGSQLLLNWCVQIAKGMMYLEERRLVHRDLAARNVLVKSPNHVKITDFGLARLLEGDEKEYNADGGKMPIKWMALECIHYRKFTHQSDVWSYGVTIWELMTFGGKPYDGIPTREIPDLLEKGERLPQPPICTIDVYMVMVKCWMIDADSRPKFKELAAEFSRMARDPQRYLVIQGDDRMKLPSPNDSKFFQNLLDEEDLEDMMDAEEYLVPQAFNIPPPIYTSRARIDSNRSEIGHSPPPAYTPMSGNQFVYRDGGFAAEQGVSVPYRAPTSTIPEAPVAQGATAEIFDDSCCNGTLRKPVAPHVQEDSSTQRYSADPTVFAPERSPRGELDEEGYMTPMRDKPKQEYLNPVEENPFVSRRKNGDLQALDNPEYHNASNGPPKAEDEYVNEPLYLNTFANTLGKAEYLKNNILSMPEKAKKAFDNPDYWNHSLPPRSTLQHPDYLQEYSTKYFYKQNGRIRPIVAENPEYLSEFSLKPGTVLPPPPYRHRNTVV
# UniProt O75460: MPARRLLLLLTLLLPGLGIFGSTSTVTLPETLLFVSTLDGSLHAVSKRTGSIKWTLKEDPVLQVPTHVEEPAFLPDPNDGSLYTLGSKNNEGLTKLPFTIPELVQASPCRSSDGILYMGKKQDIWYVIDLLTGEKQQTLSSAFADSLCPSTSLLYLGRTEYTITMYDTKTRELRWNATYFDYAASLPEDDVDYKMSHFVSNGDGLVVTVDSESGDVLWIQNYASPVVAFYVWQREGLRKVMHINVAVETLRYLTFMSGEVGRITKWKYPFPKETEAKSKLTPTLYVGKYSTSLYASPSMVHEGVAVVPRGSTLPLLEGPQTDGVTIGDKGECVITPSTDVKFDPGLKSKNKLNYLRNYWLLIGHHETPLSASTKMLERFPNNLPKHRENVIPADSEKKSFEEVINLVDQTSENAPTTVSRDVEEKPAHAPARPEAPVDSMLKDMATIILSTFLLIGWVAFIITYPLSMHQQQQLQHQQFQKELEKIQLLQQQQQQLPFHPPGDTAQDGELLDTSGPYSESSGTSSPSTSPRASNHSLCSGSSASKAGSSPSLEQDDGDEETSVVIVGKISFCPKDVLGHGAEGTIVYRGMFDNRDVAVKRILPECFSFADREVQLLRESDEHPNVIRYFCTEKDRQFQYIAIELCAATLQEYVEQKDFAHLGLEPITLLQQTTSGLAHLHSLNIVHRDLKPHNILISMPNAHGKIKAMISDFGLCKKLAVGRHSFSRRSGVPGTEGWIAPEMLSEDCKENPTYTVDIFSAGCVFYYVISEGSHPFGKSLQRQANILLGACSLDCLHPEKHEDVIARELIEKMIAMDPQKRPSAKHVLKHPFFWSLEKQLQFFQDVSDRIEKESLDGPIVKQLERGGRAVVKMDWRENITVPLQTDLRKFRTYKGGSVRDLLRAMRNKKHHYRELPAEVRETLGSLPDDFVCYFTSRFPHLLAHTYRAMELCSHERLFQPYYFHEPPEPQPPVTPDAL
# UniProt P22607, whole entry, looked up: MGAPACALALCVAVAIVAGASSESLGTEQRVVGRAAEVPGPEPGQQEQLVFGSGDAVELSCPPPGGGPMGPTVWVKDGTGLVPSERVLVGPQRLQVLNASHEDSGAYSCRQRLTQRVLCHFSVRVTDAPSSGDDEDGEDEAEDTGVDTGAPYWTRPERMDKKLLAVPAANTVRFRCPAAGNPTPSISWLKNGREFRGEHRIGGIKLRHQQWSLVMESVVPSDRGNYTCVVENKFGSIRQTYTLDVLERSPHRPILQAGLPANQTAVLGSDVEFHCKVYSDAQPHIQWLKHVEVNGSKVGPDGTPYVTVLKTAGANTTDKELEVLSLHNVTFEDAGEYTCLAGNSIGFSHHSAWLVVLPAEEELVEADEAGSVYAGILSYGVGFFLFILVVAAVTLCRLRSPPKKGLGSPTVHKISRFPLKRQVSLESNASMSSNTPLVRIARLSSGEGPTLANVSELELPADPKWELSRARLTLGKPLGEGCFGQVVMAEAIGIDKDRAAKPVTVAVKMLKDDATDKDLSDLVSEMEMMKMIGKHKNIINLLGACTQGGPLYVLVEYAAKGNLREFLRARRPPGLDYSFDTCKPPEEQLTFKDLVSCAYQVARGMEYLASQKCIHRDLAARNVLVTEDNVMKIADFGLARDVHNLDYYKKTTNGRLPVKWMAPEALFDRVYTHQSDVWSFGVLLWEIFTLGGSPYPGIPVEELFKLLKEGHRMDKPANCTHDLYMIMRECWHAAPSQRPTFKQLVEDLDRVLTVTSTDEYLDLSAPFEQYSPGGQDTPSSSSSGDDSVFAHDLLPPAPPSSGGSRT
# UniProt P14616: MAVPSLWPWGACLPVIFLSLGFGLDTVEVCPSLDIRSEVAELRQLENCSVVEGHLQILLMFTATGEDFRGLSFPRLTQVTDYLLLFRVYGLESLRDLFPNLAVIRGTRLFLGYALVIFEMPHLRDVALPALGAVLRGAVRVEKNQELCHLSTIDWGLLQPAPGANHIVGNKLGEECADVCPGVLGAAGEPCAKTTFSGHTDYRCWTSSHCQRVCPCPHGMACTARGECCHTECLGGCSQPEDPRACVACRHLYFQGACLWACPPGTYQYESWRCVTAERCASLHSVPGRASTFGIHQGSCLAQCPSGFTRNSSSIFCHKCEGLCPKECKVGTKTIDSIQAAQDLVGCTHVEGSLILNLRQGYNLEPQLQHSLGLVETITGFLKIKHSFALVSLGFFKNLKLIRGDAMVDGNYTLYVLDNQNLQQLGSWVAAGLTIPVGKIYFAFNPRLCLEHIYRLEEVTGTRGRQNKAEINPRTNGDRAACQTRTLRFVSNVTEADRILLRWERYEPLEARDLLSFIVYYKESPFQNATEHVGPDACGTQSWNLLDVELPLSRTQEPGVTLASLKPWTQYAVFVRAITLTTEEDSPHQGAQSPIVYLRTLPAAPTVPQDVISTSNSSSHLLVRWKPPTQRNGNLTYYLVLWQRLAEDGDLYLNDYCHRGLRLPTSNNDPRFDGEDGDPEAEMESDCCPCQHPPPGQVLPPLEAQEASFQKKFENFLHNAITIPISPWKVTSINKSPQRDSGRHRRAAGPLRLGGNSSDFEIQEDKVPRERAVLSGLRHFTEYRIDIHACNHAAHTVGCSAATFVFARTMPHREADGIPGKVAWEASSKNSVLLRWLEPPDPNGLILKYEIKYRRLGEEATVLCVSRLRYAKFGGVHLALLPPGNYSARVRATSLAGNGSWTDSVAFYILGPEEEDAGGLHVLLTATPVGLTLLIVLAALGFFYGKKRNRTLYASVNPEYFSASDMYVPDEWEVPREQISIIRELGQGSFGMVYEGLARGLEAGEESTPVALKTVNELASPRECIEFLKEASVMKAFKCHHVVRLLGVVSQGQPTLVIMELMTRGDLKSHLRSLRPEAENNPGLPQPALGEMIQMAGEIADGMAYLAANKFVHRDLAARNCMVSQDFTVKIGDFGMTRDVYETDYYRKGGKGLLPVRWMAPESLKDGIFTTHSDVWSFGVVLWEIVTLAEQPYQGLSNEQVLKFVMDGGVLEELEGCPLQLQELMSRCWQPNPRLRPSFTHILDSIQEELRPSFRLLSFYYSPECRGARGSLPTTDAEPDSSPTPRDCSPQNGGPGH
# UniProt Q9Y616: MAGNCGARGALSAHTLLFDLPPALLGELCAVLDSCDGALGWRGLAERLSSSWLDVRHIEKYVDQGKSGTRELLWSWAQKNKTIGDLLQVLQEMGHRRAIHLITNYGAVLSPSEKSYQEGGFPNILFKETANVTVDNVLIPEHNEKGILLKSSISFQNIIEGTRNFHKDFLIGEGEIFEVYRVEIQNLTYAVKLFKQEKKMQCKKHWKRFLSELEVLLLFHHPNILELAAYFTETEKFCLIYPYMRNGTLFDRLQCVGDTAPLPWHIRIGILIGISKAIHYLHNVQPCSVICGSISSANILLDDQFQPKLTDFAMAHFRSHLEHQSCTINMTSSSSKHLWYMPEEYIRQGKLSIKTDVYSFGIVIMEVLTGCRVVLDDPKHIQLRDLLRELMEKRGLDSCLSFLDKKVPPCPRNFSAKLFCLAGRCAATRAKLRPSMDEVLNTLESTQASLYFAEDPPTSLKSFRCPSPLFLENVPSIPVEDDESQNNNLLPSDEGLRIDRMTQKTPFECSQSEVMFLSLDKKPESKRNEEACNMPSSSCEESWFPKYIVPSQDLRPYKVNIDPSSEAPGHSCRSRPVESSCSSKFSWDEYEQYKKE
# Where a name gives a salt, the structure may show the parent alone. The list shows a part of the results. The calls rarely recur for the same compound in another form.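 In K562 cells expressing nanoluciferase-fused kinases, luminescence was recorded at 4 h intervals between 2 and 18 h, normalized as percent of control with DMSO at 100% and a positive control at 0%. A significant (2 sigma) signal drop marks a time point as decreased. The authors' rule for a hit is not shown and takes in more than the number of time points.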
# Legend:
# Assay in all cases: number of time points (of 5) at which kinase-Nluc abundance scored as decreased, DMSO-normalised (count); higher = more persistent destabilization
# Conditions in all cases: K562; 2-18 h
# EGFR_L861Q = EGFR_L861Q (UniProt P00533)
# EGFR_T790M = EGFR_T790M (UniProt P00533)
# EPHA2 = EPHA2 (UniProt P29317)
# ERBB3 = ERBB3 (UniProt P21860)
# [1] = biological target: ERBB4_R711C (clone: ERBB4_mut) (UniProt Q15303)
# ERN1 = ERN1 (UniProt O75460)
# FGFR1 = FGFR1 (UniProt P11362)
# FGFR2 = FGFR2 (UniProt P21802)
# FGFR3 = FGFR3 (UniProt P22607)
# FGR = FGR (UniProt P09769)
# FLT3 = FLT3 (UniProt P36888)
# FYN = FYN (UniProt P06241)
# GSK3A = GSK3A (UniProt P49840)
# HER2 = HER2 (UniProt P04626)
# INSRR = INSRR (UniProt P14616)
# IRAK3 = IRAK3 (UniProt Q9Y616)
# JAK1 = JAK1 (UniProt P23458)
# LCK = LCK (UniProt P06239)
# LIMK1 = LIMK1 (UniProt P53667)
# LIMK2 = LIMK2 (UniProt P53671)
Structure (SMILES),number of time points (EGFR_L861Q),number of time points (EGFR_T790M),number of time points (EPHA2),number of time points (ERBB3),number of time points [1],number of time points (ERN1),number of time points (FGFR1),number of time points (FGFR2),number of time points (FGFR3),number of time points (FGR),number of time points (FLT3),number of time points (FYN),number of time points (GSK3A),number of time points (HER2),number of time points (INSRR),number of time points (IRAK3),number of time points (JAK1),number of time points (LCK),number of time points (LIMK1),number of time points (LIMK2)
O=C(O)c1ccc(/C=C/S(=O)(=O)Cc2ccc(Cl)cc2)cc1 [Recilisib] (10 µM),0,0,0,0,0,0,0,0,0,0,0,0,0,0,0,0,0,0,0,0
Cc1cccc(COc2cccc(/C=C3\C(=O)NN(c4ccccc4)C3=O)c2)c1 (10 µM),0,0,0,0,0,0,0,0,0,0,0,0,0,1,0,0,0,0,0,0
Cc1cc(CSc2ccccc2C(=O)NCCNc2ccc(C(F)(F)F)cc2[N+](=O)[O-])on1 (10 µM),0,0,0,0,0,0,0,0,0,0,0,0,0,0,0,0,0,0,0,0
Cn1c(=O)c2c(nc(S(C)(=O)=O)n2C)n(CC#Cc2cccc(O)c2)c1=O (2.5 µM),0,0,0,0,0,0,0,0,0,0,0,2,0,1,1,0,0,0,0,0
C=CC(=O)N1CCN(C(=O)CNc2cc(I)c(Cl)cc2O)CC1 [K-Ras(G12C) inhibitor 12] (10 µM),0,0,0,0,0,0,0,0,0,0,0,0,0,0,0,0,0,0,0,0
Cc1cc(C(=O)NOCCO)c(Nc2ccc(I)cc2F)n(C)c1=O (10 µM),2,0,0,2,1,0,0,2,0,0,0,0,0,0,1,0,0,0,0,0
Cc1ccc(-n2nc(C(C)(C)C)cc2NC(=O)Nc2ccc(OCCN3CCOCC3)cc2)cc1 (10 µM),0,0,0,0,0,0,0,0,0,0,0,0,0,0,0,0,0,0,0,0
Cc1cccc(-c2[nH]ncc2-c2ccnc3ccccc23)n1 (10 µM),0,0,0,0,0,0,0,0,0,0,0,0,0,0,0,0,0,0,0,0
Nc1ncc(C(=O)NC2CN(C(=O)C3CC3)C2)c2ccc(-c3cccc(F)c3)nc12 (2 µM),0,0,0,0,0,0,0,0,0,0,0,0,0,0,0,0,0,0,0,0
COc1ccc2c(Oc3ccc4c(C(=O)Nc5ccccc5N)cccc4c3)ccnc2c1 [Chiauranib] (10 µM),0,0,0,0,0,0,0,1,0,0,0,0,0,4,0,0,3,0,3,3
COc1ccc(S(=O)(=O)Nc2cc(-c3c(O)ccc4ccccc34)c(O)c3ccccc23)cc1 (10 µM),0,0,0,1,0,0,0,0,0,0,0,0,0,0,0,0,0,0,0,0
C=C1C(=O)[C@@]23[C@H](O)C[C@@H]4C(C)(C)C(=O)CC[C@@]4(C)[C@@H]2CC[C@@H]1[C@H]3O [Glaucocalyxin A] (2.5 µM),0,0,0,0,2,0,0,0,0,0,0,3,0,0,0,0,0,0,0,0
Cc1cc([C@@H](C)Nc2ccccc2C(=O)O)c2nc(N3CCOCC3)cc(=O)n2c1 (10 µM),0,0,0,0,0,0,0,0,0,0,0,0,0,0,0,0,0,0,0,0
CC(C)=CC[C@@H](O)C1=CC(=O)c2c(O)ccc(O)c2C1=O [Shikonin] (10 µM),0,0,0,0,0,0,0,0,0,0,0,0,0,0,0,0,0,0,0,0
CCCCCc1ccc(/C=C/[C@H](O)[C@@H](CO)NC)cc1 [SK1-I (hydrochloride)] (10 µM),0,0,0,0,0,0,0,0,0,0,0,0,0,0,0,0,0,0,0,0
O=C(c1cccc(Cl)c1F)N1CCN(Cc2cccc(Nc3nccs3)n2)CC1 (2.5 µM),0,0,0,0,1,0,0,1,0,0,0,0,0,0,0,0,0,0,0,0
C=CC(=O)Nc1ccc(C(=O)Nc2[nH]nc3c2CN(C(=O)N[C@H](CN(C)C)c2ccccc2)C3(C)C)cc1 (10 µM),2,1,1,3,3,1,2,3,2,0,2,3,0,2,4,2,1,0,0,0
COc1cc2c(cc1OC)/C(=C/c1ccc(O)cc1)C(=O)N2 (10 µM),0,0,0,0,0,0,0,0,0,0,0,0,0,0,0,0,0,0,0,0
O=C(NCCN1CCOCC1)Nc1nc2ccc(Sc3nnc4ccc(-c5ccc(F)cc5)nn34)cc2s1 (10 µM),0,0,0,0,0,0,0,0,0,0,0,0,0,0,0,0,0,0,0,0
Nc1[nH]nc2nc(-c3ccc(NS(=O)(=O)c4cc(Cl)ccc4Cl)cc3)cnc12 (10 µM),0,0,0,0,0,0,0,0,0,0,0,0,0,0,0,0,0,0,0,0
C=CC(=O)Nc1cc(Nc2nccc(-c3cn(C)c4ccccc34)n2)c(OC)cc1OCCN(C)C [Rezivertinib] (2.5 µM),0,0,0,0,0,0,0,0,0,0,0,0,0,1,0,0,0,0,0,0
COc1cc(-c2cc(OP(=O)(O)O)cc(-c3cc(OC)c(OC)c(OC)c3)c2)cc(OC)c1OC [Stafia-1] (10 µM),0,0,0,0,0,0,0,0,0,0,0,0,0,0,0,0,0,0,0,0
Cc1cnc(NC(=O)c2cc(Oc3cnc(C(=O)N(C)C)nc3)c3cc(C)oc3c2)cn1 (10 µM),0,0,0,0,0,0,0,0,0,0,0,0,0,0,0,0,0,0,0,0
COc1cc(N2CCC(N3CCN(C)CC3)CC2)ccc1Nc1ncc(Cl)c(-c2c[nH]c3ccccc23)n1 (2.5 µM),0,0,0,0,0,0,0,0,0,0,0,0,0,0,0,0,0,0,0,0

# For convenience, part of the list above:
Structure (SMILES),number of time points (EGFR_L861Q),number of time points (EGFR_T790M),number of time points (EPHA2),number of time points (ERBB3),number of time points [1],number of time points (ERN1),number of time points (FGFR1),number of time points (FGFR2),number of time points (FGFR3),number of time points (FGR),number of time points (FLT3),number of time points (FYN),number of time points (GSK3A),number of time points (HER2),number of time points (INSRR),number of time points (IRAK3),number of time points (JAK1),number of time points (LCK),number of time points (LIMK1),number of time points (LIMK2)
C=CC(=O)Nc1cc(Nc2nccc(-c3cn(C)c4ccccc34)n2)c(OC)cc1OCCN(C)C [Rezivertinib] (2.5 µM),0,0,0,0,0,0,0,0,0,0,0,0,0,1,0,0,0,0,0,0
COc1cc(-c2cc(OP(=O)(O)O)cc(-c3cc(OC)c(OC)c(OC)c3)c2)cc(OC)c1OC [Stafia-1] (10 µM),0,0,0,0,0,0,0,0,0,0,0,0,0,0,0,0,0,0,0,0
